Measurements taken from the supplement of paper PMC12823440, “Inhibitors supercharge kinase turnover through native proteolytic circuits” (Nature, 2025).
Counter-ions that a name gives are not always drawn. The list shows a part of the results. Hit calls seldom repeat between salt and free forms of one compound.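 In K562 cells expressing nanoluciferase-fused kinases, luminescence was recorded at 4 h intervals between 2 and 18 h, normalized as percent of control with DMSO at 100% and a positive control at 0%. A significant (2 sigma) signal drop marks a time point as decreased. The authors' rule for a hit is not shown and takes in more than the number of time points.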

Chains of the proteins cited; added tags and fusions are not shown.
UniProt P31152, whole entry: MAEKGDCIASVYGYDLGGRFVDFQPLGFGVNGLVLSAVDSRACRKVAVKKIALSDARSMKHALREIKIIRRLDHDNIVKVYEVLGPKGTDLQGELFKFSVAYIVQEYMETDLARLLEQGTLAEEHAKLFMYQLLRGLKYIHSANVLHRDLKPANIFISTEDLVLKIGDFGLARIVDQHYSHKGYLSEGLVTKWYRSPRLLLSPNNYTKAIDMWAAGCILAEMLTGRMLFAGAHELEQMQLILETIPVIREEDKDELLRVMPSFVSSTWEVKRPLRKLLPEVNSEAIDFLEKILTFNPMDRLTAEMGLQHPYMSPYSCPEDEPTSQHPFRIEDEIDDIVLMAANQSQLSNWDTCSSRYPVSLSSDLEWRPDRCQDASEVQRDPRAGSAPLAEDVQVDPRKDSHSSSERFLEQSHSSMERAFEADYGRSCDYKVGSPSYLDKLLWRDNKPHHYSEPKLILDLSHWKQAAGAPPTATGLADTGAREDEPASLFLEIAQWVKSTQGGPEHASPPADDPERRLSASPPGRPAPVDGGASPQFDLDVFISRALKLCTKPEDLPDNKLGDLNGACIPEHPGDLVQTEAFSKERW

Each compound was assayed against MAPK4 (UniProt P31152) (assay: number of time points (of 5) at which kinase-Nluc abundance scored as decreased, DMSO-normalised (count); higher = more persistent destabilization). Settings: K562; 2-18 h.

CN1CCN(c2cc(-c3ccncc3)c(-c3ccc4ccccc4c3)nn2)CC1 (10 µM) and Cn1c(CNc2cccc(C(=O)NCc3ccccc3C(F)(F)F)c2)nnc1-c1ccncc1 (10 µM) are the same in “number of time points” value: 0 for the first, 0 for the second.

CC(O)(C#Cc1ccc2c(c1)N(c1nc(N)ncc1Cl)CC2)c1nccs1 (stereo not drawn) (2.5 µM) and CC(C)Oc1ccc(F)c(-c2cnc(N)c(C(=O)Nc3cnccc3N3CCC[C@@H](C(=O)O)C3)n2)c1 (2 µM) are the same in “number of time points” value: 0 for the first, 0 for the second.

COc1ccc(Nc2ncc(C(F)(F)F)c(NC3CC3)n2)cc1OC (10 µM) and COc1cc2ncnc(Nc3cccc(I)c3)c2cc1OC (2.5 µM) are the same in “number of time points” value: 0 for the first, 0 for the second.

O=c1cc(N2CCOCC2)oc2c(-c3ccc4c(c3)OCCO4)csc12 (2.5 µM) and COc1cc(N2CCOCC2)ccc1Nc1ncc(F)c(Nc2ccccc2NS(C)(=O)=O)n1 (10 µM) are the same in “number of time points” value: 0 for the first, 0 for the second.

N[C@@H]1CCCN(c2c(/C=C3\SC(=O)NC3=O)cccc2-c2ccccc2)C1 (10 µM) and Cc1cccc(COc2cccc(/C=C3\C(=O)NN(c4ccccc4)C3=O)c2)c1 (10 µM) are the same in “number of time points” value: 0 for the first, 0 for the second.

N#Cc1ccc(-c2cnc3[nH]cc(NC(=O)c4cccnc4)c3c2)cc1 (10 µM) and O=C(Nc1cc(Cl)cc2c1[nH]c1cnccc12)c1cccnc1 (10 µM) are the same in “number of time points” value: 0 for the first, 0 for the second.

COc1ccc(Br)cc1NC(=O)Nc1cccc2c1ccn2Cc1ccnc(N)c1 (2.5 µM) and O=C(Nc1cccnc1)c1cc(-c2ccnc(F)c2)ccc1OCc1ccccc1 (10 µM) are the same in “number of time points” value: 0 for the first, 0 for the second.

COc1ccc(-c2cc(=O)c3c(OC)cc(OC)c(OC)c3o2)cc1 [6-Demethoxytangeretin] (10 µM) and COc1cc2c(cc1O)C[C@H]1c3cc(O)c(OC)cc3CC[N@@+]1(C)C2 [Phellodendrine] (10 µM) are the same in “number of time points” value: 0 for the first, 0 for the second.

CO[C@H]1C[C@@H]2CC[C@@H](C)[C@@](O)(O2)C(=O)C(=O)N2CCCC[C@H]2C(=O)O[C@H]([C@H](C)C[C@@H]2CC[C@@H](OC(=O)C(C)(CO)CO)[C@H](OC)C2)CC(=O)[C@H](C)/C=C(\C)[C@@H](O)[C@@H](OC)C(=O)[C@H](C)C[C@H](C)/C=C/C=C/C=C/1C [Temsirolimus] (2.5 µM) and C=CC(=O)N1CC[C@@H](Oc2nc(Nc3ccc(N4CCC(N5CCN(C)CC5)CC4)cc3)c(C(N)=O)nc2CC)C1 [Naquotinib (mesylate)] (2.5 µM) are the same in “number of time points” value: 0 for the first, 0 for the second.

O=C(ON=C1c2ccccc2-c2nc3ccccc3nc21)c1ccco1 (2.5 µM) and COc1ccc(S(=O)(=O)Nc2cc(-c3c(O)ccc4ccccc34)c(O)c3ccccc23)cc1 (10 µM) are the same in “number of time points” value: 0 for the first, 0 for the second.

Going from COc1cc(F)ccc1-c1ncnc(Nc2cccc(C[S@](C)(=N)=O)c2)n1 [Atuveciclib] (2.5 µM) to CCc1c[nH]c2ncnc(N3CC[C@](N)(CNC(=O)c4ccc(F)cc4F)C3)c12 (10 µM), the “number of time points” value falls from 2 to 0.

CC(C)n1ncnc1-c1cn2c(n1)-c1ccc(O[C@@H](C)C(N)=O)cc1OCC2 (10 µM) and CC(Sc1nc2c(cnn2-c2cccc(Cl)c2)c(=O)[nH]1)C(N)=O (stereo not drawn) (10 µM) are the same in “number of time points” value: 0 for the first, 0 for the second.

O=Nc1c(-c2c(O)[nH]c3cc(Br)ccc23)[nH]c2ccccc12 [GSK 3 Inhibitor IX] (2.5 µM) and Cc1ccc(C)c(OCCn2cc(C(=O)O)c3ccccc32)c1 (10 µM) are the same in “number of time points” value: 0 for the first, 0 for the second.

Nc1ncc(C(=O)NC2CN(C(=O)C3CC3)C2)c2ccc(-c3cccc(F)c3)nc12 (2 µM) and COCCOc1ccc2c(c1)ncn2-c1ccc2cccc(N3CCC(N)CC3)c2n1 (10 µM) are the same in “number of time points” value: 0 for the first, 0 for the second.

c1ccc(Cn2c(-c3ccc(OC[C@H](C4CCNCC4)n4c(-c5ccccc5)nc5ccccc54)cc3)nc3ccccc32)cc1 [Deltarasin] (2.5 µM) and Clc1ccc(C(c2ccc(Cl)cc2)[n+]2ccn(CC(OCc3ccc(Cl)cc3Cl)c3ccc(Cl)cc3Cl)c2)cc1 (stereo not drawn) [Calmidazolium chloride] (2.5 µM) are the same in “number of time points” value: 0 for the first, 0 for the second.

c1nn(C2CCOCC2)cc1Nc1ncc2nnn(-c3ccc4cn[nH]c4c3)c2n1 (10 µM) and CC(C)n1c(=O)n(C)c2cnc3cc(F)c(-c4ccc(OCCCN5CCCCC5)nc4)cc3c21 (10 µM) are the same in “number of time points” value: 0 for the first, 0 for the second.

COC(=O)[C@H](CCSC)NC(=O)c1ccc(NC[C@@H](N)CS)cc1-c1ccccc1 [FTI-277 (hydrochloride)] (10 µM) and O=C1OC(/C=C/c2ccccc2)=NC/1=C\c1cccnc1 (10 µM) are the same in “number of time points” value: 0 for the first, 0 for the second.

Cc1cc(Nc2cc(N)ncn2)c(=O)n2c1C(=O)NC21CCCCC1 [Tomivosertib] (10 µM) and Nc1ncnc2c1nc(Br)n2[C@@H]1O[C@@H]2COP(=O)(O)O[C@H]2[C@H]1O [8-Bromo-cAMP sodium salt] (10 µM) are the same in “number of time points” value: 0 for the first, 0 for the second.

CC(C)=CCC/C(C)=C/CC/C(C)=C/C=C/C(C)=C/C(=O)O [Peretinoin] (10 µM) and Cc1cc(O)c2c(c1)C(=O)c1cccc(O)c1C2=O [Chrysophanol] (2 µM) are the same in “number of time points” value: 0 for the first, 0 for the second.
